Test results: US20260022376A1
Results are given in words; binding and its absence hold for the method and conditions named. Binding seen in cells or lysates may run through a third protein. Some entries that bind do so weakly or less than the wild type.

Protein sequences, listed by entry. Tags and fused reporters are not part of them. Lines headed by an entry give the natural chain unless they say otherwise; changes in a name come on top. Chains listed by the source or under a name are the forms on record and can include a tag or linker. Residues count along the entry.
human tau with the P301L mutation expressed in Drosophila (GMR-TauP301L) (P10636, form named): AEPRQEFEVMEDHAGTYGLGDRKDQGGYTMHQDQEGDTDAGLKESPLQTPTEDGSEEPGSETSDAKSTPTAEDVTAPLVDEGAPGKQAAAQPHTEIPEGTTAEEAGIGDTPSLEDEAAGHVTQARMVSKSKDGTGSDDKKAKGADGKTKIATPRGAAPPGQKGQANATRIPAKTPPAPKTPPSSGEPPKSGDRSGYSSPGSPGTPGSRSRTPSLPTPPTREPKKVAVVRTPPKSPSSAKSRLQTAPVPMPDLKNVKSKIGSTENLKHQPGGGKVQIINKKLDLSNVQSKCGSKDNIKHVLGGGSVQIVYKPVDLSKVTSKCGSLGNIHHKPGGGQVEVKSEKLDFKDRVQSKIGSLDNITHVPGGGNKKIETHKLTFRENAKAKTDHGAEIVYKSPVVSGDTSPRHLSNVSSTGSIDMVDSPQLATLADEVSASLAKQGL
wild-type human Bassoon, full-length, overexpressed (HEK293T cells; Drosophila UAS-BSN line) (Q9UPA5, residues 2-3926): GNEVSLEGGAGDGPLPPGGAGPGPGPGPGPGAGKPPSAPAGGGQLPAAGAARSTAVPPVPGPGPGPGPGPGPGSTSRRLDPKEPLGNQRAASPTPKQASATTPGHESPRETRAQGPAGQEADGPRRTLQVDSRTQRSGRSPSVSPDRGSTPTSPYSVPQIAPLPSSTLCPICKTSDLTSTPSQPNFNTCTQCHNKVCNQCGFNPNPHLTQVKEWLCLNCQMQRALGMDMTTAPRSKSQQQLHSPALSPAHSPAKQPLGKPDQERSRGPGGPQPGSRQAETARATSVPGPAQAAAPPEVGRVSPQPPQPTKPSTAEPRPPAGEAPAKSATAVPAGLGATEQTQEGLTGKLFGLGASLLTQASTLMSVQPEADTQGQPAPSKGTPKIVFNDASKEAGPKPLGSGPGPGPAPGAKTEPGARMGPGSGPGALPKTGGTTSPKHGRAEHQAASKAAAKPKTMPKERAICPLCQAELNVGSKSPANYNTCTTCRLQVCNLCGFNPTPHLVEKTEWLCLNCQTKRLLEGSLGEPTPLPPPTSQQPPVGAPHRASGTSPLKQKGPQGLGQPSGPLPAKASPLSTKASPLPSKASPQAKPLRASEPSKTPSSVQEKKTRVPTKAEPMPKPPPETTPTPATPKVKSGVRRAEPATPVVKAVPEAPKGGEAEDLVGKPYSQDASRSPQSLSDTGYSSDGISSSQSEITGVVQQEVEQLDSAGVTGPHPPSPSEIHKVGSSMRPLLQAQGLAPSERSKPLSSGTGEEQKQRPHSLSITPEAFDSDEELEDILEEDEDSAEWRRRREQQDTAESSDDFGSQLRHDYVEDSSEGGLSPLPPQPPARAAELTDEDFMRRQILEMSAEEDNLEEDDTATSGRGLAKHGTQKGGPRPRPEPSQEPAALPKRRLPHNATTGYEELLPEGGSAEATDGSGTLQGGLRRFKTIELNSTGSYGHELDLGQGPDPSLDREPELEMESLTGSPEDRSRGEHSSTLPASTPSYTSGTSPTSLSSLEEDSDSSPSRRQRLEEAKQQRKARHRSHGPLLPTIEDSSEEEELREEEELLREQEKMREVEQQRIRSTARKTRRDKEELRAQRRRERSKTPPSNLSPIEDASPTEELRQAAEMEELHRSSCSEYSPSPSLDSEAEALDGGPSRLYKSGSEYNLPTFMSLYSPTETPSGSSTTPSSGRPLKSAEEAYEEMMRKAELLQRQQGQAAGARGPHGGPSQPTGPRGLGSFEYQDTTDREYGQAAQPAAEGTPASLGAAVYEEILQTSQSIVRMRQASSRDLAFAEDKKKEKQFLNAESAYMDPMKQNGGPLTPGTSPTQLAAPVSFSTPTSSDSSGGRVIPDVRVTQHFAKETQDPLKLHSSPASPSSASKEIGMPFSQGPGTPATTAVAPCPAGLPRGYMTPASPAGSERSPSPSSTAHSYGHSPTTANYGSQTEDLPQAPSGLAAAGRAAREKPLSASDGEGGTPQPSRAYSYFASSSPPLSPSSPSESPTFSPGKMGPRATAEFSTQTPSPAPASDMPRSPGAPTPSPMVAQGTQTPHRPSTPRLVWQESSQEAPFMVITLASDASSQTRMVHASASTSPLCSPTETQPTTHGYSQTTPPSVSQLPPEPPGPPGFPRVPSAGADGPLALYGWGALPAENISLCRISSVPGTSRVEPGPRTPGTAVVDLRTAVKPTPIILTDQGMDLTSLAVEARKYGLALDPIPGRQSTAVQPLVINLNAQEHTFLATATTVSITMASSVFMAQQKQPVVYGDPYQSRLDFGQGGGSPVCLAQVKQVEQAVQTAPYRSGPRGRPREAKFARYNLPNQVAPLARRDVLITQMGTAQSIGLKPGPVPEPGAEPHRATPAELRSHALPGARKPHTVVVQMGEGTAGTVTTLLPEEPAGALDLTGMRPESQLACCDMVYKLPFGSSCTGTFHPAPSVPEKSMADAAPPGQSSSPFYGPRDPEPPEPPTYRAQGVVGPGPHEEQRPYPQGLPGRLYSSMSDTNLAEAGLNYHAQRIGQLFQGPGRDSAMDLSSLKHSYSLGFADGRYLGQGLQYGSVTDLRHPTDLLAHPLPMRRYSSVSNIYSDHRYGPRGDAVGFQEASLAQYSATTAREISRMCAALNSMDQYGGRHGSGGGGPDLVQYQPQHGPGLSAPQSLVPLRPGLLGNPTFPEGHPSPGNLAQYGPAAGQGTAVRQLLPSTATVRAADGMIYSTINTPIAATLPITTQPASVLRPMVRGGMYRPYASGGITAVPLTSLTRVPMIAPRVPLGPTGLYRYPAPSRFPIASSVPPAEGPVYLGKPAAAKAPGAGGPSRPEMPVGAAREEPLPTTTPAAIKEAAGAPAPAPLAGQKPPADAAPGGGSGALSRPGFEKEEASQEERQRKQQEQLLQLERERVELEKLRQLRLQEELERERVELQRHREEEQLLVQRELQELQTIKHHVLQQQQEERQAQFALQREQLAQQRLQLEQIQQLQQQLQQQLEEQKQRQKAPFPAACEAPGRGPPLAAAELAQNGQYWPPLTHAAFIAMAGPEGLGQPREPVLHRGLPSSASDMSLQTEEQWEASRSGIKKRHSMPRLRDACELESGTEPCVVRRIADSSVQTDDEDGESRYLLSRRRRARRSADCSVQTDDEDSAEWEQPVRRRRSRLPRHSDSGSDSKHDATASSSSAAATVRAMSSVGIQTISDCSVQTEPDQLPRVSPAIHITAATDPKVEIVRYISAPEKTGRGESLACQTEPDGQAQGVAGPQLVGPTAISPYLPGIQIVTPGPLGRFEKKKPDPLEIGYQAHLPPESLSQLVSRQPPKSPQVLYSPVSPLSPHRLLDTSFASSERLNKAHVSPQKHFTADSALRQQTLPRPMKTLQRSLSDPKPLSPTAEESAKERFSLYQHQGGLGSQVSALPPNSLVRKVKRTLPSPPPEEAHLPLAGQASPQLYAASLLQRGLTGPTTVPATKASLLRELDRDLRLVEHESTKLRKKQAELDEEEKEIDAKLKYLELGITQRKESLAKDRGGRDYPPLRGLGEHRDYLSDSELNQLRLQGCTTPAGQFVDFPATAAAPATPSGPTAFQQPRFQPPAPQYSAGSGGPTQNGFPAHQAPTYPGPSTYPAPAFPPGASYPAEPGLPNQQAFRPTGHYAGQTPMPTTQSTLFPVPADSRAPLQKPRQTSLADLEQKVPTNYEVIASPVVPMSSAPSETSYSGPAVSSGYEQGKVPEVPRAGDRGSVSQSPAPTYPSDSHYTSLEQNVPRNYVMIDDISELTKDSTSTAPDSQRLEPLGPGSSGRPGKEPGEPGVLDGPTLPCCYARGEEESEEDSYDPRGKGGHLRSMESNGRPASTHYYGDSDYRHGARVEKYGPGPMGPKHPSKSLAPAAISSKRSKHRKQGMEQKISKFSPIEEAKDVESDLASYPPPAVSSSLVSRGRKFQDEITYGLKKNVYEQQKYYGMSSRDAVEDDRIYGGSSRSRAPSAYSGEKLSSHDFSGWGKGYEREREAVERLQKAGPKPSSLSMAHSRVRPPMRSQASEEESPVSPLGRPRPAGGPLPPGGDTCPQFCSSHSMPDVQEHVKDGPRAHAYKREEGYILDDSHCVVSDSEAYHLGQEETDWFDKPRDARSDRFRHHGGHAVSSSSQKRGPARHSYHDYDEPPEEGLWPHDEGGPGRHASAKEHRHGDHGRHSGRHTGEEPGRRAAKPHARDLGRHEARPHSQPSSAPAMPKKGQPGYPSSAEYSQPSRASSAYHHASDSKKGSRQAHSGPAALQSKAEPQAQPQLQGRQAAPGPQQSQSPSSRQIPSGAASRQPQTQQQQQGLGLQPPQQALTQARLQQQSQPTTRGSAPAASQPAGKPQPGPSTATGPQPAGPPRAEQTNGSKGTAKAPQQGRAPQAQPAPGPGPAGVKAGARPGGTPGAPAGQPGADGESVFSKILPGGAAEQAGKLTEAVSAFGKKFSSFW

Target: human tau with the P301L mutation expressed in Drosophila (GMR-TauP301L) (human) (UniProt P10636)
Experiment: co-IP of human tau (HT7) with BSN Western blot, fly head lysates

Substance: wild-type human Bassoon, full-length, overexpressed (HEK293T cells; Drosophila UAS-BSN line) (from UniProt Q9UPA5 2-3926)
- binding: binds

Substance: human BSN harboring the P3866A mutation, full-length, overexpressed in Drosophila (from UniProt Q9UPA5 2-3926)
- binding: binds
